The values below come from PMC11005171, “Molecular cloning, characterisation and molecular modelling of two novel T-synthases from mollusc origin” (Glycobiology, 2024).

For one data set, the system named is T1, Pc_T-synthase.
T1 construct: gene T-synthase; full-length 373 aa (CDS 1,122 bp), C-terminal His tag, codon-optimised, expressed in Sf9 cells (baculovirus), clear cell lysate
The data set can be described thus: HPLC galactosyl transfer assay, inhibition. It is filed as biochemical, Pomacea canaliculata. The following applies: 5 nmol inhibitor in 20 uL standard assay: MES pH 6.5, 20 mM MnCl2, 200 uM UDP-Gal, 1 mM pNP-α-GalNAc, 37 °C; Sf9 lysate.

The next data set relates to T2, Cg2_T-synthase.
T2 construct: gene T-synthase; full-length 421 aa (CDS 1,266 bp), C-terminal His tag, codon-optimised, expressed in Sf9 cells (baculovirus), clear cell lysate
Kind of data set: HPLC galactosyl transfer assay, inhibition. It is filed as biochemical, Magallana gigas. As to conditions: 5 nmol inhibitor in 20 uL standard assay: MES pH 6.5, 20 mM MnCl2, 200 uM UDP-Gal, 1 mM pNP-α-GalNAc, 37 °C; Sf9 lysate.

Each structure is given as a SMILES string.

Consider `Nc1nc2c(ncn2[C@@H]2O[C@H](COP(=O)(O)OP(=O)(O)O)[C@@H](O)[C@H]2O)c(=O)[nH]1` [GDP], for which the “% inhibition with 5 nmols” value in the data set with Pc_T-synthase is recorded as 25%.

Take `O=c1ccn([C@@H]2O[C@H](COP(=O)(O)OP(=O)(O)O)[C@@H](O)[C@H]2O)c(=O)[nH]1` [UDP]: the “% inhibition with 5 nmols” value in the data set on Cg2_T-synthase amounted to 31%.

Consider `O=c1ccn([C@@H]2O[C@H](COP(=O)(O)O)[C@@H](O)[C@H]2O)c(=O)[nH]1` [UMP], for which the figures for the “% inhibition with 5 nmols” value in the data set with Cg2_T-synthase and in the data set on Pc_T-synthase were 23% and 30%, respectively.

As to `O=c1ccn([C@@H]2O[C@H](COP(=O)(O)OP(=O)(O)OP(=O)(O)O)[C@@H](O)[C@H]2O)c(=O)[nH]1` [UTP], the “% inhibition with 5 nmols” value in the data set with Cg2_T-synthase came out at 16%; with Pc_T-synthase, 75%.

On to `OC[C@H]1OC(O)[C@H](O)[C@@H](O)[C@H]1O` (stereo partly shown) [galactose], for which, in the data set on Pc_T-synthase, the “% inhibition with 5 nmols” value came to 13%.
